According to PubChem BioAssay AID540276 (National Center for Advancing Translational Sciences (NCATS), 2011):
About 5,400 (1.8%) of roughly 300,000 compounds were called active. Inconclusive results, whose numbers are uncertain, are shown with a selection of clear calls. Calls follow the shape of the full dose curve; tested in HEK293 cells. Potencies of inconclusive entries are doubtful fits and often do not repeat.

assay: qHTS for inhibitors of binding or entry into cells for Marburg Virus; details: Marburg virus pseudotyped entry inhibition, cell reporter; series mostly up to 37.8 µM
Potency is read from the fitted curve at half-maximal effect.

Row | Structure (SMILES) | Potency
1 | CCc1ccc(NS(=O)(=O)c2ccc3oc(=O)ccc3c2)cc1 | inconclusive: 1 µM [inhibitor, partial curve, poor fit]
2 | COc1cccc(NC(=O)CSc2nnc(C)s2)c1 | inconclusive: 7.3 µM [inhibitor, partial curve, poor fit]
3 | CCN(CC)CCNCc1cc(Cl)ccc1OCc1ccccc1F | inconclusive: 25.1 µM [inhibitor, single point]
4 | CC1CCCN(Cc2c(O)ccc3c2O/C(=C\c2ccco2)C3=O)C1 (centres undefined) | inactive
5 | COc1cccc2c(=O)c3cccc(N)c3[nH]c12 | inconclusive: 0.562 µM [inhibitor, full curve, poor fit]
6 | O=C(CCn1c(=O)oc2ccccc21)N1CCN(c2ccccc2Cl)CC1 | inconclusive: 1.12 µM [inhibitor, partial curve, poor fit]
7 | COC(=O)CCC(=O)c1oc2ccccc2c1N | inactive
8 | COc1ccc(C2CC(=O)C3=C(C2)NC(C)=C(C(=O)Nc2ccccc2C)C3c2coc3ccc(C)cc3c2=O)cc1OC (centres undefined) | inconclusive: 6.51 µM [inhibitor, partial curve, poor fit]
9 | O=C1C2(c3ccccc3)CN(CCCO)CC1(c1ccccc1)CN(CCCO)C2 | inconclusive: 5.8 µM [inhibitor, single point]
10 | CSc1nc(C)cc(OCCNS(=O)(=O)c2cc(C)ccc2C)n1 | inactive
11 | Oc1ccc(/C=N\Nc2cc(N3CCOCC3)nc(N3CCOCC3)n2)c(O)c1 | inconclusive: 5.8 µM [inhibitor, partial curve]
12 | COc1ccc(N(CC(=O)NCCSCc2cccc(Cl)c2)S(C)(=O)=O)cc1 | inconclusive: 11.2 µM [inhibitor, partial curve, poor fit]
13 | Cc1ccnc(NC(=O)CCC(=O)N(CC(=O)NCc2ccccc2)Cc2ccccc2)c1 | inactive
14 | CN(C)S(=O)(=O)c1ccc(C(=O)Nc2ccc(CCC(=O)N3CCCC3)cc2)cc1 | inactive
15 | O=C1NC(=S)SC1=Cc1ccccc1Cl | inconclusive: 3.16 µM [activator, single point]
16 | CCC(=O)N(CCC(Cc1ccccc1)c1ccc2c(c1)OCO2)Cc1ccccc1F (centres undefined) | active: 12.6 µM
17 | COc1cccc(-c2ccc(SCc3ccccn3)nn2)c1 | inconclusive: 15.8 µM [inhibitor, single point]
18 | Cc1ccc(Cl)c(OCCCCN(C)Cc2ccccc2)c1 | inconclusive: 29.1 µM [inhibitor, single point]
19 | CCN1CCc2c(sc(NC(=S)NC(=O)c3ccc(Cl)cc3)c2C(N)=O)C1 | inactive

2 entries drawn at random from those above, as already listed:
Row | Structure (SMILES) | Potency
5 | COc1cccc2c(=O)c3cccc(N)c3[nH]c12 | inconclusive: 0.562 µM [inhibitor, full curve, poor fit]
6 | O=C(CCn1c(=O)oc2ccccc21)N1CCN(c2ccccc2Cl)CC1 | inconclusive: 1.12 µM [inhibitor, partial curve, poor fit]
